1 substance from article PMC3557187 can be followed below.

Chains of the proteins cited; added tags and fusions are not shown.
UniProt P84095: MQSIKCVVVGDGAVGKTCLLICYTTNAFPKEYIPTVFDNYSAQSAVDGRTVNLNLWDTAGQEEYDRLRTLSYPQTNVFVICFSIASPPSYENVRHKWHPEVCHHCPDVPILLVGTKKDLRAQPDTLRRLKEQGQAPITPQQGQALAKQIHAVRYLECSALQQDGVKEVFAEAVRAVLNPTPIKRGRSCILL

The assay addresses T1, GST-ELMO-NT (GST fusion protein containing the N-terminal RhoG-binding domain of ELMO2, amino acids 1-362) (UniProt Q96JJ3).
T1 sequence: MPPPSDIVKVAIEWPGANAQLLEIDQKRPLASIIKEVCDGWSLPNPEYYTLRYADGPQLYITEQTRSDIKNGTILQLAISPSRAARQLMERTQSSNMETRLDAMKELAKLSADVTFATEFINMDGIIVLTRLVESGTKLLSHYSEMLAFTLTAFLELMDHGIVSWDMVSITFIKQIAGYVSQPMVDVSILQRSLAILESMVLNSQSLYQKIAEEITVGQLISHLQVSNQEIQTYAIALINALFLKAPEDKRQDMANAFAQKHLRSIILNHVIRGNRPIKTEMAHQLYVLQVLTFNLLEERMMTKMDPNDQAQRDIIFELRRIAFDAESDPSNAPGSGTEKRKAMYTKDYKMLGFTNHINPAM
Briefly: pull-down; 500 mg (so in the source) of SNB19 lysate supernatant incubated with 20 ug GST-ELMO-NT and 10 ul GST beads, 1 hour, 4°C; lysis buffer 50 mM Tris-HCl pH 7.5, 100 mM NaCl, 10 mM MgCl2, 1% Triton X-100, 10% glycerol, 1 mM DTT; bound RhoG detected by western blot; cells serum starved 24 hours, then untreated or stimulated with HGF (25 ng/ml) or EGF; only the target purified. Background: In western blotting, separated proteins are transferred to a membrane and probed.

No constants are given. Whether binding was seen depends on the method and setting. Binding seen in cells or lysates may run through a third protein. Some entries that bind do so weakly or less than the wild type. Tags and fused reporters may be left off the sequences shown.

On to “RhoG small GTPase (from UniProt P84095 1-191)”, for which the binding result is “binds”.
